From the supplement of paper PMC10849652
Some of the results follow.

The chains behind the UniProt entries cited, without tags or fusion partners. Where a name states a change or a piece, a line headed by the entry shows the natural chain unless it says otherwise.
UniProt Q9UP95: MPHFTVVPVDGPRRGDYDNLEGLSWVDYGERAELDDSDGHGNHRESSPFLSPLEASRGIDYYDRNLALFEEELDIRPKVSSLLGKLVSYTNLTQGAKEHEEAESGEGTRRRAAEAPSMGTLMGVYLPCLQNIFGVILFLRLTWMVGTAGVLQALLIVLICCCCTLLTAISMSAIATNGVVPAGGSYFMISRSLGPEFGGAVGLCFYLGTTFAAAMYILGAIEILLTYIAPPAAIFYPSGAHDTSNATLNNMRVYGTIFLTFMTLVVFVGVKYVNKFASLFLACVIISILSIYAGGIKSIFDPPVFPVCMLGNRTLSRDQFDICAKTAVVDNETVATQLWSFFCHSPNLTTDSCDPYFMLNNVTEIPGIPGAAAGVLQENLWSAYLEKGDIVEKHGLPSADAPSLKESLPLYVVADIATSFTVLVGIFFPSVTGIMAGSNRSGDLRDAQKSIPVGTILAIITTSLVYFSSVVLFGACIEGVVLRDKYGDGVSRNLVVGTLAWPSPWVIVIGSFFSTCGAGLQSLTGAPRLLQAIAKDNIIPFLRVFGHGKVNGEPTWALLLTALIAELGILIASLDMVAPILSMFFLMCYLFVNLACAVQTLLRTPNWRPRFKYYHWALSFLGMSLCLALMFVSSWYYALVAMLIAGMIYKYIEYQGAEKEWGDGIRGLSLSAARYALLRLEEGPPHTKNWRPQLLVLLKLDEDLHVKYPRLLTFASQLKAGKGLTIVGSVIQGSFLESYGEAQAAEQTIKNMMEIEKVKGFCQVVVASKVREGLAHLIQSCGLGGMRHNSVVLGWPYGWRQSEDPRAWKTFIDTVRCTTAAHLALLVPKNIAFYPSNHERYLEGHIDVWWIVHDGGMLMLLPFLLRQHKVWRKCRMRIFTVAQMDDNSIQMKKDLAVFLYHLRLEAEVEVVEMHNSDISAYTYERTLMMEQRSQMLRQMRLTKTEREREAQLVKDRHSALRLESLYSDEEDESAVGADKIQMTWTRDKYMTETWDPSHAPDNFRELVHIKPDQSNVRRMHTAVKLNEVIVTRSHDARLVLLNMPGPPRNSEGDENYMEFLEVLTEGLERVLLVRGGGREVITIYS
UniProt P41440: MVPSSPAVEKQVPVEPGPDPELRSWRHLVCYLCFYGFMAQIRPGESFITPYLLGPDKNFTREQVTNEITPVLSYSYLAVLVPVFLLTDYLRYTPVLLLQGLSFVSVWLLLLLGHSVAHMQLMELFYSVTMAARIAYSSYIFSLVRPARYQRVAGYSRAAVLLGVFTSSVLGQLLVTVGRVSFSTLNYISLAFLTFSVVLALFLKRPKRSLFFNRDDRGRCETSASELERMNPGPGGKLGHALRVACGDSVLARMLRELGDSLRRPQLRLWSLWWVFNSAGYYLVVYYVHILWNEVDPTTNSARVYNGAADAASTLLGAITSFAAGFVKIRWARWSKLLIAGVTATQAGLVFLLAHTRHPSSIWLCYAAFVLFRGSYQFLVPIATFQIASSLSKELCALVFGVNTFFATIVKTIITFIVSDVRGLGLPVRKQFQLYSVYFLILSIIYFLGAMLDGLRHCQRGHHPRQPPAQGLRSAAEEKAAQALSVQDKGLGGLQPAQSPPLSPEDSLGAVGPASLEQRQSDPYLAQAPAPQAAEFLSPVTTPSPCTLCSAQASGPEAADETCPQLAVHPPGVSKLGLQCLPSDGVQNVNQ
UniProt A0MZ66, whole entry, looked up: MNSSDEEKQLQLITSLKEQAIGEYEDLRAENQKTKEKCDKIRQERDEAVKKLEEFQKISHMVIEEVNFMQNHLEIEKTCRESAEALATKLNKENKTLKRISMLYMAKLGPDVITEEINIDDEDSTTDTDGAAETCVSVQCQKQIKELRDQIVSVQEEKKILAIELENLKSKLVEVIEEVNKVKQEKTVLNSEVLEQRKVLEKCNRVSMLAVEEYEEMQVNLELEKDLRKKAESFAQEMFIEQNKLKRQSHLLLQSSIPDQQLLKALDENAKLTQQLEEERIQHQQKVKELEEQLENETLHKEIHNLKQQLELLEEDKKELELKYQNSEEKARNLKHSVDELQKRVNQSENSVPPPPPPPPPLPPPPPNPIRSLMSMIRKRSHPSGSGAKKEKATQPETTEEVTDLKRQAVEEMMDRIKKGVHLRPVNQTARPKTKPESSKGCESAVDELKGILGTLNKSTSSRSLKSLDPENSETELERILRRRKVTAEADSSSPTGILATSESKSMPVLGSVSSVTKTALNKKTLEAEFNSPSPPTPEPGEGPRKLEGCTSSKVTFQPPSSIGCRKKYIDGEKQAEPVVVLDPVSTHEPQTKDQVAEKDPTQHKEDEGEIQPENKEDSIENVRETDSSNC
UniProt Q96ES7: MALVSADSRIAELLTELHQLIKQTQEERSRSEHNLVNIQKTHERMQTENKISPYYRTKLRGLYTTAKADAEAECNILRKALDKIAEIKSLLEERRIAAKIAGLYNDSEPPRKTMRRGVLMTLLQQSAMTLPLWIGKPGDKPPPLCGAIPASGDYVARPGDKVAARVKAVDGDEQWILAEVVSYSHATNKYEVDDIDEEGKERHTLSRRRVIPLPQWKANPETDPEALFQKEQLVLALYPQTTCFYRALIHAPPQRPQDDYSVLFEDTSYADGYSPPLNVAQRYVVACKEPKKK
UniProt Q8IXJ6: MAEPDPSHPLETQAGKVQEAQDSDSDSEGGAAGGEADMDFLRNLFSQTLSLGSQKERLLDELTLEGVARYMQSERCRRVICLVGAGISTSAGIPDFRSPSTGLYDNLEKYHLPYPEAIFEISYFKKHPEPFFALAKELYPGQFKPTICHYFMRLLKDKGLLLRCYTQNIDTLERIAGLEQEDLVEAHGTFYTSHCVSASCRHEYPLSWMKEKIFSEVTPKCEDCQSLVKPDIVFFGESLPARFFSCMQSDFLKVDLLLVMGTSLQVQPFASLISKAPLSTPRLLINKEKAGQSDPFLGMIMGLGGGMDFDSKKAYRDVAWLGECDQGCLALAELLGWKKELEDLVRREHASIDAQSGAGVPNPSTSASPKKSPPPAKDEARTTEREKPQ
UniProt Q96BI1: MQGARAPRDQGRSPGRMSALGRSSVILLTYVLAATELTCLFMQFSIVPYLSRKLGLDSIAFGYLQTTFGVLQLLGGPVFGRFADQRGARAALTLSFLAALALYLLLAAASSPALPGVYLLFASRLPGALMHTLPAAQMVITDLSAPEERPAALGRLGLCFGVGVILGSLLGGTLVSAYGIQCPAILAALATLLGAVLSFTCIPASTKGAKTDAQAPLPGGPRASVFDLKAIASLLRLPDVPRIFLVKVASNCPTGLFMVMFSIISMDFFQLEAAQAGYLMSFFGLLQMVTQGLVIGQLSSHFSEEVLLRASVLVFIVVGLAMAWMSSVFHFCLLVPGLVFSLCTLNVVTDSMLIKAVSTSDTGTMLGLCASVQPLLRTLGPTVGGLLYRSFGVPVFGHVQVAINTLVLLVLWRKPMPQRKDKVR
UniProt Q9H173: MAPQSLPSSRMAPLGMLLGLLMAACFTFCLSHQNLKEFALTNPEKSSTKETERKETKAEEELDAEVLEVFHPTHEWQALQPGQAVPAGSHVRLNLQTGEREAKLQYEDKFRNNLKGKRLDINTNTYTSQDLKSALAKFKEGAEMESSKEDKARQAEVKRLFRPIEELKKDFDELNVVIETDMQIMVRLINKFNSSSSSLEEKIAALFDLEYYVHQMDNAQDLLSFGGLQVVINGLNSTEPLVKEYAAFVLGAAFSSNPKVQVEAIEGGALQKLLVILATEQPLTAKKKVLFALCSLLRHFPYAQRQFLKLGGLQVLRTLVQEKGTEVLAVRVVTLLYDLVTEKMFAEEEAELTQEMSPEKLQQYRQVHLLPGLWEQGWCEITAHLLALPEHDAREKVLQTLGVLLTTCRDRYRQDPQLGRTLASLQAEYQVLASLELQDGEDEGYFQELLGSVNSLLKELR
UniProt O15047, whole entry, looked up: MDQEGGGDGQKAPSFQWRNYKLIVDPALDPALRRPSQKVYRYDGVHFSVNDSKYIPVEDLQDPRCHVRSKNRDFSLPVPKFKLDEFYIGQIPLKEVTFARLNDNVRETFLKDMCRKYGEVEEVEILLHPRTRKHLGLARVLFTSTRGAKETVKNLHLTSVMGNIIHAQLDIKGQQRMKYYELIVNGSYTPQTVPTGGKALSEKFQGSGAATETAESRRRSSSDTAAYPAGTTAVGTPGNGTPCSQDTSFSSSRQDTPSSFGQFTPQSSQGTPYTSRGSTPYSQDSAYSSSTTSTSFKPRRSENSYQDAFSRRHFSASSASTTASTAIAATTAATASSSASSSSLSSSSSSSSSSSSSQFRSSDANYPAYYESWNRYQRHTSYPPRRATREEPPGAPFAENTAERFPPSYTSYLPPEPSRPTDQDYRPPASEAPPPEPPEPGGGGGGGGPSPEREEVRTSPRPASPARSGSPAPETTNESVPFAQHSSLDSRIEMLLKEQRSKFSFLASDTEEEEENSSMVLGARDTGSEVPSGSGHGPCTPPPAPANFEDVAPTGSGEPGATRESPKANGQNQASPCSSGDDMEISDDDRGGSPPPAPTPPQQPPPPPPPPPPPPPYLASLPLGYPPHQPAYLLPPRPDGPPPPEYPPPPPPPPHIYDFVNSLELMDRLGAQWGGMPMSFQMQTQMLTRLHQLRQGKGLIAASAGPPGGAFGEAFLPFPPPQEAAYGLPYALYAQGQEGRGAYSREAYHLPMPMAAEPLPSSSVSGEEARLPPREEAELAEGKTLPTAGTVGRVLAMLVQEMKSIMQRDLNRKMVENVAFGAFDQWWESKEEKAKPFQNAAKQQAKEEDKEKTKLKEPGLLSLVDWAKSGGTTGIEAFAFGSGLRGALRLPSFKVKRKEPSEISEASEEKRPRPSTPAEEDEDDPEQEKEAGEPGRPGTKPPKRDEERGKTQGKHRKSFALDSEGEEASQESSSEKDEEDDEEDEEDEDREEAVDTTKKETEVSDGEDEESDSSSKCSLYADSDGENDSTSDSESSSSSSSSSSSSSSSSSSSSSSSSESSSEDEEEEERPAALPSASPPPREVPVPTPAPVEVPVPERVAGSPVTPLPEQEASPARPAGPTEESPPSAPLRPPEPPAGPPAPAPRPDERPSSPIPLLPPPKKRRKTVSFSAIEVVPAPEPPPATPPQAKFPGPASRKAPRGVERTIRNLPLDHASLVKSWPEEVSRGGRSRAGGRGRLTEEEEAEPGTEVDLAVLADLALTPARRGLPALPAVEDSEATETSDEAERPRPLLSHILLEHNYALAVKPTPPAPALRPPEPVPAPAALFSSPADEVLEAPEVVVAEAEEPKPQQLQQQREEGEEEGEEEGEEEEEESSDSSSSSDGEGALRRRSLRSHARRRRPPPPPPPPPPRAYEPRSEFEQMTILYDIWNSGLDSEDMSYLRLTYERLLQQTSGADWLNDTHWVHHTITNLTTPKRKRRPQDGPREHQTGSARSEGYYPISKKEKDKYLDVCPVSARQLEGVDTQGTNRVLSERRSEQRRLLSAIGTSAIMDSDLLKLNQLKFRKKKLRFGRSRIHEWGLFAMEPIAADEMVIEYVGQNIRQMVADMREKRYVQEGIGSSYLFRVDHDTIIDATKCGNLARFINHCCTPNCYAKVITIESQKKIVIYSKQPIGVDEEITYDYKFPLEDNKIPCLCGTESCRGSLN
UniProt Q9Y371: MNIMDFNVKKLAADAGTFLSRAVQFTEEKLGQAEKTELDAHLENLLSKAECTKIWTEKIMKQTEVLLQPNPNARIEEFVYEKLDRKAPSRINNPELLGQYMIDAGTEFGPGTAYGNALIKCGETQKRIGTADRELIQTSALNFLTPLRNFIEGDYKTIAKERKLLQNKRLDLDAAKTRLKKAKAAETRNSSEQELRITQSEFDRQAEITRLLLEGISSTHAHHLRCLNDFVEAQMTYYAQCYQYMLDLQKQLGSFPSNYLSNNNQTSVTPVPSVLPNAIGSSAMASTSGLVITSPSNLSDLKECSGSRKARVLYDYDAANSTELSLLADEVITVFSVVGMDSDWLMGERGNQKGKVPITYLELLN
UniProt Q8N6T7, whole entry, looked up: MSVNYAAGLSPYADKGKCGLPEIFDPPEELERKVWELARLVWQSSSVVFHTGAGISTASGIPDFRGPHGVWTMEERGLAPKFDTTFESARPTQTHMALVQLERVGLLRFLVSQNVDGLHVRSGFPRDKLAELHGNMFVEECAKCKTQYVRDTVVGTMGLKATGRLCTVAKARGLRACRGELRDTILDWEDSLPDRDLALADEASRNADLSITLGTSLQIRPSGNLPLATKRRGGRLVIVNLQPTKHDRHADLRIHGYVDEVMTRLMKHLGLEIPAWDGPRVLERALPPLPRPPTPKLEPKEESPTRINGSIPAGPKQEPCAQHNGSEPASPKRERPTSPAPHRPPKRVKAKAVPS

How the values were obtained:
Test in all cases: log2 fold change, soluble protein after heating vs DMSO (PISA); higher = thermal stabilisation; K562 lysate, 10 uM; active = over 0.2 and 3.5 SD of the protein, either way, in both replicates (recomputed)
[1] = compound: CCCS(=O)(=O)Nc1ccc(F)c(C(=O)c2c[nH]c3ncc(-c4ccc(Cl)cc4)cc23)c1F [vemurafenib]
Outline: (§1)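 Log-two fold change in thermal stability relative to solvent controls is reported from duplicates. For each sample, crude K562 extract from dounce-homogenised pellets in PBS pH 7.4 with 1 mM MgCl2, at 1 mg/mL protein, was treated with 10 μM compound for 30 min. Aliquots heated for 3 min across 48°C-58°C were pooled, brought to 0.5% NP-40 at 4°C and cleared at 21,000xg for 90 min. The supernatant was quantified by TMTpro 16plex LC-MS/MS with channel sums equalised.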

[2] = compound: CCCS(=O)(=O)Nc1ccc(F)c(C(=O)c2c[nH]c3ncc(Cl)cc23)c1F
Outline: as §1

[3] = compound: CCN(CCCOc1ccc2c(Nc3cc(CC(=O)Nc4cccc(F)c4)[nH]n3)ncnc2c1)CCOP(=O)(O)O [barasertib]
Outline: as §1

[4] = compound: CC[C@@H]1C(=O)N(C)c2cnc(Nc3ccc(C(=O)NC4CCN(C)CC4)cc3OC)nc2N1C1CCCC1
Outline: as §1

[5] = compound: CC[C@@H]1C(=O)N(C)c2cnc(Nc3ccc(C(=O)N[C@H]4CC[C@H](N5CCN(CC6CC6)CC5)CC4)cc3OC)nc2N1C(C)C [volasertib]
Outline: as §1

[6] = compound: CCn1c(C(=O)N(C2CC2)C2CC2)cc2c3c(ncn3C)c(Nc3cc(C)n(C)n3)nc21
Outline: as §1

[7] = compound: CCn1cc(-c2ccnc3[nH]c(-c4cccc(CN(C)C)c4)cc23)c(-c2ccc(NC(=O)N(C)C)cc2)n1
Outline: as §1

[8] = compound: CN1CCC(CNc2ccc3ncc(-c4cccc(OC(F)(F)F)c4)n3n2)CC1
Outline: as §1

[9] = compound: CN1CCN(CCOc2cc(OC3CCOCC3)c3c(Nc4c(Cl)ccc5c4OCO5)ncnc3c2)CC1 [saracatinib]
Outline: as §1

[10] = compound: CN1CCN(c2nc(C3=C(c4c[nH]c5ccccc45)C(=O)NC3=O)c3ccccc3n2)CC1 [sotrastaurin]
Outline: as §1

[11] = compound: CN1CC[C@H](c2c(O)cc(O)c3c(=O)cc(-c4ccccc4Cl)oc23)[C@H](O)C1 [alvocidib]
Outline: as §1

[12] = compound: CN1CCc2c(c3ccccc3n2Cc2ccc(C(=O)NO)cc2)C1 [Tubastatin A]
Outline: as §1

[13] = compound: CNC(=O)C1=CC=CC=C1NC2=NC(=NC=C2Cl)NC3=C(C=C(C=C3)N4CCOCC4)OC
Outline: as §1

[14] = compound: CNC(=O)c1ccc(Nc2ncc(C(F)(F)F)c(NCc3nccnc3N(C)S(C)(=O)=O)n2)cc1 [defactinib]
Outline: as §1

[15] = compound: CNc1nc(-c2ccc3c(N)n[nH]c3c2)cc(N2C[C@@H](C(=O)NC3CCCCC3)CC[C@H]2C)n1
Outline: as §1

[16] = compound: COC(=O)N[C@@H](C)CNc1nccc(-c2cn(C(C)C)nc2-c2cc(Cl)cc(NS(C)(=O)=O)c2F)n1 [encorafenib]
Outline: as §1

[17] = compound: COC(=O)[C@H](CCSC)NC(=O)C1=C(C=C(C=C1)NC[C@H](CS)N)C2=CC=CC=C2
Outline: as §1

[18] = compound: COc1cc(Nc2ncc3c(n2)-c2ccc(Cl)cc2C(c2c(F)cccc2OC)=NC3)ccc1C(=O)O [alisertib]
Outline: as §1

[19] = compound: COc1cc2nc(-c3cc(F)ccc3O)nc(N[C@@H]3CNC[C@H]3C(C)(C)O)c2cc1OC
Outline: as §1

[20] = compound: COc1cc2ncnc(Nc3ccc(F)c(Cl)c3)c2cc1OCCCN1CCOCC1 [gefitinib]
Outline: as §1

Measured: log2 fold change

SLC12A4 (UniProt Q9UP95)
inactive: [1] 0.033 | [2] 0.038 | [3] -0.004 | [4] 0.024 | [5] -0.043 | [6] 0.032 | [7] 0.026 | [8] -0.065 | [9] 0.036 | [10] 0.019 | [11] 0.035 | [12] -0.001 | [13] 0.155 | [14] -0.023 | [15] -0.073 | [16] 0.012 | [17] 0.038 | [18] -0.01 | [19] -0.002 | [20] 0.063

SLC19A1 (UniProt P41440)
inactive: [1] 0.028 | [2] -0.005 | [3] 0.059 | [4] 0.014 | [5] 0.047 | [6] -0.036 | [7] -0.203 | [8] 0.165 | [9] 0.019 | [10] 0.025 | [11] -0.106 | [12] 0.047 | [13] 0.025 | [14] 0.01 | [15] 0.037 | [16] 0.011 | [17] -0.018 | [18] -0.005 | [19] 0.039 | [20] 0.026

SF1 isoform 5 (UniProt Q15637)
inactive: [1] -0.017 | [2] 0.018 | [3] -0.033 | [4] 0.044 | [5] 0.009 | [6] -0.006 | [7] -0.033 | [8] 0.055 | [9] 0.031 | [10] -0.1 | [11] -0.006 | [12] 0.033 | [13] 0.012 | [14] -0.023 | [15] 0.036 | [16] 0.024 | [17] -0.042 | [18] 0.019 | [19] -0.002 | [20] -0.017

SHTN1 (UniProt A0MZ66)
inactive: [1] 0.022 | [2] 0.009 | [3] 0.002 | [4] 0.043 | [5] 0.015 | [6] -0.021 | [7] -0.019 | [8] 0.023 | [9] 0.015 | [10] -0.002 | [11] -0.022 | [12] 0.039 | [13] 0.001 | [14] -0.008 | [15] 0.028 | [16] 0.006 | [17] -0.011 | [18] -0.017 | [19] 0.012 | [20] -0.016

SGF29 (UniProt Q96ES7)
inactive: [1] -0.127 | [2] -0.021 | [3] -0.05 | [4] 0.132 | [5] -0.079 | [6] -0.01 | [7] -0.098 | [8] 0.016 | [9] -0.004 | [10] 0.014 | [11] -0.04 | [12] -0.034 | [13] 0.061 | [14] 0.074 | [15] 0.039 | [16] 0.117 | [17] 0.037 | [18] 0.006 | [19] -0.039 | [20] 0.015

SLC20A2 (UniProt Q08357)
inactive: [1] 0.086 | [2] 0.007 | [3] 0.081 | [4] 0.035 | [5] 0.017 | [6] 0.062 | [7] 0.054 | [8] 0.027 | [9] 0.154 | [10] 0.051 | [11] -0.001 | [12] -0.121 | [14] 0.032 | [15] -0.055 | [16] -0.021 | [17] -0.132 | [18] -0.137 | [19] 0.033 | [20] 0.203

SIRT2 (UniProt Q8IXJ6)
inactive: [1] 0.022 | [2] 0.011 | [3] -0.076 | [4] 0.009 | [5] 0.208 | [6] 0.004 | [7] 0.02 | [8] 0.04 | [9] 0.034 | [10] 0.012 | [11] -0.041 | [12] 0.017 | [13] 0.032 | [14] -0.028 | [15] 0.017 | [16] 0.069 | [17] 0.003 | [18] -0.021 | [19] -0.046 | [20] 0.057

SLC22A18 (UniProt Q96BI1)
inactive: [1] 0.026 | [2] 0.046 | [3] -0.059 | [4] 0.044 | [5] 0.08 | [7] 0.026 | [8] -0.032 | [10] 0.073 | [11] -0.035 | [13] 0.052 | [14] -0.076 | [16] 0.009 | [17] -0.013 | [19] -0.077

SIL1 (UniProt Q9H173)
inactive: [1] 0.038 | [2] 0.039 | [3] 0 | [4] 0.044 | [5] -0.001 | [6] -0.046 | [7] -0.071 | [8] 0.056 | [9] -0.004 | [10] 0.037 | [11] 0.007 | [12] 0.049 | [13] -0.024 | [14] -0.014 | [15] 0.017 | [16] 0.024 | [17] -0.004 | [18] 0.006 | [19] 0.028 | [20] 0.057

4 consecutive records already listed, quoted:
SF1 isoform 5 (UniProt Q15637)
inactive: [1] -0.017 | [2] 0.018 | [3] -0.033 | [4] 0.044 | [5] 0.009 | [6] -0.006 | [7] -0.033 | [8] 0.055 | [9] 0.031 | [10] -0.1 | [11] -0.006 | [12] 0.033 | [13] 0.012 | [14] -0.023 | [15] 0.036 | [16] 0.024 | [17] -0.042 | [18] 0.019 | [19] -0.002 | [20] -0.017

SHTN1 (UniProt A0MZ66)
inactive: [1] 0.022 | [2] 0.009 | [3] 0.002 | [4] 0.043 | [5] 0.015 | [6] -0.021 | [7] -0.019 | [8] 0.023 | [9] 0.015 | [10] -0.002 | [11] -0.022 | [12] 0.039 | [13] 0.001 | [14] -0.008 | [15] 0.028 | [16] 0.006 | [17] -0.011 | [18] -0.017 | [19] 0.012 | [20] -0.016

SGF29 (UniProt Q96ES7)
inactive: [1] -0.127 | [2] -0.021 | [3] -0.05 | [4] 0.132 | [5] -0.079 | [6] -0.01 | [7] -0.098 | [8] 0.016 | [9] -0.004 | [10] 0.014 | [11] -0.04 | [12] -0.034 | [13] 0.061 | [14] 0.074 | [15] 0.039 | [16] 0.117 | [17] 0.037 | [18] 0.006 | [19] -0.039 | [20] 0.015

SLC20A2 (UniProt Q08357)
inactive: [1] 0.086 | [2] 0.007 | [3] 0.081 | [4] 0.035 | [5] 0.017 | [6] 0.062 | [7] 0.054 | [8] 0.027 | [9] 0.154 | [10] 0.051 | [11] -0.001 | [12] -0.121 | [14] 0.032 | [15] -0.055 | [16] -0.021 | [17] -0.132 | [18] -0.137 | [19] 0.033 | [20] 0.203

Further entries.

SETD1A (UniProt O15047)
inactive: [1] 0.012 | [2] 0.056 | [3] 0.067 | [4] -0.096 | [5] -0.022 | [6] -0.014 | [7] 0.076 | [8] 0.053 | [9] 0.031 | [10] -0.034 | [11] -0.001 | [12] 0.05 | [13] 0.017 | [14] 0.02 | [15] 0.014 | [16] 0.012 | [17] 0.094 | [18] -0.023 | [19] -0.001 | [20] -0.014

SH3GLB1 isoform 2 (UniProt Q9Y371)
inactive: [1] -0.019 | [2] 0.018 | [3] 0.022 | [4] -0.052 | [5] -0.03 | [6] 0.04 | [7] -0.033 | [8] 0.008 | [9] 0.043 | [10] 0.042 | [11] -0.034 | [12] -0.132 | [13] -0.018 | [14] 0.004 | [15] -0.109 | [16] 0.078 | [17] 0.065 | [18] -0.009 | [19] -0.025 | [20] 0.04

SLC12A9 (UniProt Q9BXP2)
inactive: [1] 0.012 | [2] 0.018 | [3] 0.026 | [5] -0.019 | [6] 0.051 | [7] -0.028 | [8] 0.059 | [9] 0.058 | [10] 0.032 | [11] -0.017 | [12] 0.214 | [13] 0.007 | [14] 0.024 | [15] 0.067 | [18] 0.048 | [19] -0.012 | [20] 0.068

SHKBP1 (UniProt Q8TBC3)
inactive: [1] 0.079 | [2] -0.017 | [3] 0.03 | [4] -0.038 | [5] 0.033 | [6] -0.058 | [7] -0.093 | [8] 0.103 | [9] 0.013 | [10] 0.017 | [11] -0.038 | [12] -0.018 | [13] -0.002 | [14] 0.115 | [15] 0.046 | [16] -0.05 | [18] 0.019 | [19] 0.001 | [20] 0.023
active: [17] 0.274

SIRT6 (UniProt Q8N6T7)
inactive: [1] 0.048 | [2] 0.129 | [3] -0.027 | [4] -0.111 | [5] -0.003 | [6] -0.034 | [7] -0.042 | [8] -0.013 | [9] -0.086 | [10] 0.048 | [11] 0.057 | [12] 0.135 | [13] 0.029 | [14] 0.045 | [15] 0.012 | [16] -0.002 | [17] 0.149 | [18] -0.071 | [19] 0.031 | [20] 0.071

SH3BP5 (UniProt O60239)
inactive: [1] 0.007 | [2] 0.049 | [3] 0.053 | [4] 0.043 | [5] -0.027 | [6] 0.025 | [7] 0.1 | [8] -0.019 | [9] -0.001 | [10] 0.06 | [11] 0.033 | [12] 0.04 | [13] 0.044 | [14] -0.026 | [15] 0.019 | [16] 0.06 | [17] -0.093 | [18] -0.041 | [19] 0.051 | [20] 0.134

SETMAR (UniProt Q53H47)
inactive: [1] 0.033 | [2] 0.038 | [3] -0.031 | [4] -0.042 | [5] -0.01 | [6] 0.01 | [7] -0.078 | [8] -0.023 | [9] 0.04 | [10] 0.032 | [11] -0.027 | [12] 0.026 | [13] -0.004 | [14] 0.003 | [15] -0.008 | [16] -0.246 | [17] 0.018 | [18] -0.014 | [19] 0.007 | [20] -0.001
